Results on 92 compounds are retold here after PubChem BioAssay AID434947 (Broad Institute, 2010).

Broadly, the EC50 is the midpoint of the concentration-response curve.

The campaign covered roughly 2,200 compounds. About 15 (0.7%) were called active.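 The calls were made as follows: active = fitted half-maximal concentration for loss of luminescence signal no more than a set limit of log units above the top tested concentration; inconclusive = flat fit with 30 to 70% signal loss, or invalid fit; inactive = half-maximal concentration above that set limit.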 This is one part of the list. A value given as a limit tells only on which side of the number the result lay.

A short description of this assay: inhibitors of ADP-Glo detection reagents, dose response, artefact control for GSK3beta inhibitor project, biochemical, luminescence, cell-free, homogeneous (AID 434947).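 Also: kinase-free counter screen of ADP-Glo detection reagents for GSK3beta hits.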 Particulars: 5 uM ADP. (In ADP-Glo the light output rises with the ADP produced.)
Consider `COc1cccc(C(=O)Nc2nc3ccccc3s2)c1`, for which the EC50 is inactive: > 30 µM.
On to `COc1cccc(Nc2nc(-c3ccccc3)nc3ccccc23)c1`, for which the EC50 was inactive: > 30 µM.
In the case of `COc1c(CC=C(C)C)cc(C2CC(=O)c3c(O)cc(O)cc3O2)c(CC=C(C)C)c1O` (configuration not stated), the EC50 is inactive: > 30 µM.
As for `Cc1ccc(CSc2nnc(-c3ccncc3)o2)c(C)c1`, the EC50 is inactive: > 30 µM.
With `Cc1ccc(C)c(Nc2nc(-c3ccncc3)nc3ccccc23)c1`, the EC50 is inactive: > 30 µM.
Consider `O=C1C2C3C=CC(C3)C2C(=O)N1CCCCCCN1C(=O)C2C3C=CC(C3)C2C1=O` (configuration not stated), for which the EC50 was inactive: > 30 µM.
Turning to `OC(CNc1nc(-c2cccnc2)nc2ccccc12)c1ccccc1` (configuration not stated), the EC50 is inactive: > 30 µM.
With `CCn1c(SCC(=O)Nc2ccc(NC(C)=O)cc2)nnc1C1CC1`, the EC50 is inactive: > 30 µM.
`COc1ccc(CNC(=O)CN(Cc2ccco2)C(=O)CCC(=O)Nc2ccccn2)cc1`: the EC50 was inactive: > 30 µM.
With `CCCC(NC(=O)Cc1c(C)c2c(cc(C)c3c(C)coc32)oc1=O)C(=O)O` (configuration not stated), the EC50 is inactive: > 30 µM.
`COc1ccc(OC)c(-c2cc(-c3cccnc3)nc(N)c2C#N)c1`: the EC50 is inactive: > 30 µM.
`CC(C(=O)NCC1CCCO1)n1cc([N+](=O)[O-])cn1` (configuration not stated): the EC50 was inactive: > 30 µM.
Regarding `CCN1CCc2c(C#N)c(N3CCCCC3)nc(N3CCOCC3)c2C1`, the EC50 is inactive: > 30 µM.
As for `Cc1[nH]nc2c1C(c1ccc(F)cc1)C1=C(CC(C)(C)CC1=O)N2` (configuration not stated), the EC50 was inactive: > 30 µM.
Consider `O=[N+]([O-])c1ccccc1S(=O)(=O)N1CCc2ccccc2C1`, for which the EC50 is inactive: > 30 µM.
`CC(=O)c1cccc(Nc2nc(-c3ccccc3)nc3ccccc23)c1`: the EC50 is inactive: > 30 µM.
Then `Cc1cccc(-c2nnc(SCc3ccccc3)o2)c1`, with inactive: > 30 µM; and `CCCOc1ccc(-c2c(C(=O)N/N=C(\C)c3ccco3)nnn2-c2nonc2N)cc1`, with inactive: > 30 µM.
As to `O=C(Cn1c2ccccc2c(=O)c2ccccc21)Nc1ccccc1F`, the EC50 was inactive: > 30 µM.
Regarding `O=C(Nc1ccccc1C(=O)N1CCOCC1)C1CCCO1` (configuration not stated), the EC50 is inactive: > 30 µM.
Turning to `CC(C(=O)Nc1cccnc1)n1cc([N+](=O)[O-])cn1` (configuration not stated), the EC50 was inactive: > 30 µM.
Consider `CCC(O)CNc1nc(SC)nc2sc3c(c12)CCN(C)C3` (configuration not stated), for which the EC50 was inactive: > 30 µM.
For the compound `C/C(CC(=O)NCc1ccccc1)=N\NC(=O)c1cnccn1`, the EC50 was inactive: > 30 µM.
As for `CC1Cc2cc(-c3csc(NC(=O)Cc4ccccc4)n3)ccc2N1S(C)(=O)=O` (configuration not stated), the EC50 was inactive: > 30 µM.
`CCOC(=O)c1sc(NC(=O)CSc2nnc(C(C)C)n2C)nc1C`: the EC50 is inactive: > 30 µM.
In the case of `O=C(CSCCc1ccccn1)Nc1ccc(Br)cn1`, the EC50 is inactive: > 30 µM.
The figure for `Cc1c(C(=O)OCCOc2ccccc2)[nH]c2c1C(=O)CCC2` is inactive: > 30 µM; for `Cc1ccc(S(=O)(=O)NNC(=O)c2cccc(O)c2)cc1` it is inactive: > 30 µM; for `N#Cc1c(-c2ccc(F)cc2)nc(-c2ccccc2)[nH]c1=O` it is inactive: > 30 µM.
The figure for `COCCOC(=O)C(C#N)c1nc2ccccc2nc1N1CCN(Cc2ccccc2)CC1` (configuration not stated) is inactive: > 30 µM; for `Nc1nc(NCc2ccco2)nc(NC2CCCCC2)c1[N+](=O)[O-]` it is inactive: > 30 µM.
For `Cc1ccc2cc(NC(=O)c3cccc(F)c3)ccc2n1`, the EC50 was inactive: > 30 µM.
Consider `CCOc1ccc(/C=C2\CCCc3c2nc2ccccc2c3C(=O)O)cc1OC`, for which the EC50 was inactive: > 30 µM.
As for `CCOC(=O)c1c(C)[nH]c(C)c1S(=O)(=O)N(C)CC(=O)Nc1ccccc1`, the EC50 is inactive: > 30 µM.
Then `COC(=O)c1ccc2c(=O)n(CC3CCCO3)c(SCC(=O)Nc3ccccc3Cl)nc2c1` (configuration not stated), with inactive: > 30 µM; and `CCOC(=O)c1sc(NC(=O)CCN2C(=O)c3cccc([N+](=O)[O-])c3C2=O)c(C(=O)OCC)c1C`, with inactive: > 30 µM; and `Cc1[nH]nc2c1C(c1cccc(O)c1)C1=C(CC(C)(C)CC1=O)N2` (configuration not stated), with inactive: > 30 µM.
Turning to `COCCNc1nc(SC)nc2sc3c(c12)CCN(C)C3`, the EC50 was inactive: > 30 µM.
Turning to `CCC(Sc1ccc2nnc(-c3ccc(F)cc3)n2n1)C(=O)O` (configuration not stated), the EC50 was inactive: > 30 µM.
Then `CCCCn1nc(NC(=O)CC(C)C)c2cc3cc(OC)ccc3nc21`, with inactive: > 30 µM.
As for `CC1(C)CC2CC(C)(CN2S(=O)(=O)c2ccc(C(=O)Nc3ccc(Cl)c(S(=O)(=O)N4CCOCC4)c3)cc2)C1` (configuration not stated), the EC50 is inactive: > 30 µM.
As for `CCOC(=O)c1nnn(-c2nonc2N)c1-c1ccc(OCC)cc1`, the EC50 was inactive: > 30 µM.
As to `O=C(Nc1ccc(O)c2c(=O)cc(-c3ccccc3Cl)oc12)c1ccc(Cl)cc1Cl`, the EC50 is inactive: > 30 µM.
For the compound `CC(NCCC(Cc1ccccc1)c1ccco1)c1ccccc1` (configuration not stated), the EC50 is inactive: > 30 µM.
For `c1ccc(Nc2nc(-c3ccccc3)nc3ccccc23)cc1`, the EC50 was inactive: > 30 µM.
Take `Fc1ccccc1Nc1nc(-c2ccncc2)nc2ccccc12`: the EC50 is inactive: > 30 µM.
Consider `O=C(CSc1nnc(-c2ccncc2)o1)Oc1ccccc1`, for which the EC50 is inactive: > 30 µM.
As to `CC(=O)Nc1cc(-c2ccc(Cl)cc2)[nH]n1`, the EC50 is inactive: > 30 µM.
In the case of `Cc1nc(Nc2ccccc2)sc1C(=O)c1ccc(F)cc1`, the EC50 was inactive: > 30 µM.
For the compound `CCC(C)NC(=O)CNC(=S)N(CCCN1CCOCC1)Cc1cccs1` (configuration not stated), the EC50 is inactive: > 30 µM.
On to `Nc1nc(NCC2CCCO2)nc(Nc2cccc(F)c2)c1[N+](=O)[O-]` (configuration not stated), for which the EC50 was inactive: > 30 µM.
In the case of `COc1ccc(-c2nn(-c3ccccc3)cc2C#N)cc1`, the EC50 is inactive: > 30 µM.
Consider `CCOc1ccc2nc(NC(=O)CSc3nc4cccnc4n3C)sc2c1`, for which the EC50 is inactive: > 30 µM.
As to `Cc1c(NC(=O)C(C)n2cc([N+](=O)[O-])cn2)c(=O)n(-c2ccccc2)n1C` (configuration not stated), the EC50 is inactive: > 30 µM.
Then `O=C(N/N=C/c1cc(Br)ccc1O)c1ccccc1Cl`, with inactive: > 30 µM; and `COc1cc(/C=C2/C(=O)NN(c3cccc(Cl)c3)C2=O)cc(Br)c1O`, with inactive: > 30 µM.
On to `O=C(O)c1cc(-c2ccc(/C=N/N3C(=O)C4C5C=CC(CC5)C4C3=O)o2)ccc1Cl` (configuration not stated), for which the EC50 was inactive: > 30 µM.
On to `CC(C)(C)C1CCc2onc(C(=O)Nc3ccc4c(c3)OCO4)c2C1` (configuration not stated), for which the EC50 was inactive: > 30 µM.
`CCSc1nc(N)c2c3c(sc2n1)CN(C)CC3`: the EC50 is inactive: > 30 µM.
Regarding `CC(C)(C)N=C1NN=C(c2ccc(Cl)cc2)CS1`, the EC50 is inactive: > 30 µM.
In the case of `O=C1CCCc2oc3ccc(O)cc3c21`, the EC50 was inactive: > 30 µM.
Consider `O=C(O)c1cc(N/N=C/c2ccc(-c3ccc(F)cc3)o2)ccc1Cl`, for which the EC50 is inactive: > 30 µM.
Then `Nc1nonc1-n1nnc(C(=O)N/N=C/c2ccc(OCc3ccccc3)cc2)c1CN1CCCCC1`, with inactive: > 30 µM; and `Cc1[nH]nc2c1C(c1ccc(O)cc1)C1=C(CC(C)(C)CC1=O)N2` (configuration not stated), with inactive: > 30 µM; and `O=c1cc(-c2ccc(O)c(O)c2)oc2cc(O)cc(O)c12`, with inactive: > 30 µM.
With `O=C(O)/C=C/C(=O)NCC1CCC(CNC(=O)/C=C/C(=O)O)CC1` (configuration not stated), the EC50 was inactive: > 30 µM.
The figure for `Nc1nonc1-n1nnc(C(=O)N/N=C/c2ccccc2F)c1CN1CCOCC1` is inactive: > 30 µM; for `COc1ccccc1Nc1nc(NCCCN(C)C)nc(N)c1[N+](=O)[O-]` it is inactive: > 30 µM.
Turning to `CCNc1nc(SCC(N)=O)nc2sc3c(c12)CCN(C)C3`, the EC50 was inactive: > 30 µM.
Turning to `CCN1CCN(c2c(C(=O)c3ccc(OC)cc3)cnc3ccccc23)CC1`, the EC50 was inactive: > 30 µM.
In the case of `O=C(CCS(=O)(=O)c1ccc(Br)cc1)Nc1ccc(Cl)cc1F`, the EC50 is inactive: > 30 µM.
`CCCCCc1cc(O)c2c(C)cc(=O)oc2c1`: the EC50 is inactive: > 30 µM.
`O=C(Nc1ccccc1)C(=O)Nc1ccccn1`: the EC50 was inactive: > 30 µM.
In the case of `O/N=C/c1cn(-c2ccccc2)nc1-c1ccc2c(c1)OCCO2`, the EC50 was inactive: > 30 µM.
`COc1ccc2c(c1)-c1c(sn(-c3ccc(OC)c(OC)c3)c1=S)C(C)(C)N2`: the EC50 is inactive: > 30 µM.
Turning to `Cn1cc(/C=N/NC(=O)COc2ccccc2[N+](=O)[O-])c2ccccc21`, the EC50 was inactive: > 30 µM.
As to `Cc1nc(NCCCn2ccnc2)c2oc3ccccc3c2n1`, the EC50 was inactive: > 30 µM.
The figure for `COc1cc(/C=C2\SC(=Nc3ccc(O)cc3)NC2=O)cc(OC)c1O` is inactive: > 30 µM; for `Cc1ccc(Nc2nc(NCC3CCCO3)nc(N)c2[N+](=O)[O-])cc1` (configuration not stated) it is inactive: > 30 µM; for `CC/C(=N\NC(=O)CSCc1ccccc1Cl)c1ccc2c(c1)OCCO2` it is inactive: > 30 µM.
For the compound `CN1CCN(CCNC(=O)Nc2ccccc2[N+](=O)[O-])CC1`, the EC50 was inactive: > 30 µM.
For `C(=N\Nc1nccc(-c2cccnc2)n1)/c1ccccc1`, the EC50 was inactive: > 30 µM.
As for `Cc1c(O)ccc(C(=O)CN2CCN(c3ccc(F)cc3)CC2)c1O`, the EC50 was inactive: > 30 µM.
In the case of `Cc1ccnc(NC(=O)CCC(=O)N(CC(=O)NCCc2ccccc2)Cc2cccs2)c1`, the EC50 is inactive: > 30 µM.
Regarding `Cc1csc(NC(=O)CN2C(=O)c3ccccc3C2=O)c1C(N)=O`, the EC50 was inactive: > 30 µM.
In the case of `NC(=S)N/N=C/c1cn(CCC(=O)O)nc1-c1cccc(Br)c1`, the EC50 is inactive: > 30 µM.
As to `COc1cccc2c1cc1c(=O)n(CC(=O)N3CCCCCC3)nc(C)n12`, the EC50 was inactive: > 30 µM.
As to `Cc1oc2c(CN(C)C)c(O)ccc2c(=O)c1-c1ccc2ccccc2n1`, the EC50 was inactive: > 30 µM.
Take `COc1cc(NC(=S)Nc2ccccn2)c(OC)cc1Cl`: the EC50 is inactive: > 30 µM.
For the compound `O=C(O)CSCC(=O)NCc1c(Cl)cccc1Oc1ccccc1`, the EC50 was inactive: > 30 µM.
On to `Cc1coc2cc3oc(=O)c(CCC(=O)NCCCN4CCCC4=O)c(C)c3cc12`, for which the EC50 is inactive: > 30 µM.
In the case of `Clc1nccc(NCc2ccccc2)n1`, the EC50 was inactive: > 30 µM.
